From patent publication US7122321B2, “High throughput method for functionally classifying proteins identified using a genomics approach” (Johnson & Johnson Pharmaceutical Research & Development, …, priority 1997, dated 2006)
Some of these results come from one statement about several compounds together. At least one compound was matched to its structure with a doubt left.

The chains behind the UniProt entries cited, without tags or fusion partners. Residues count along the entry.
UniProt P00742, 41-179 limits assumed: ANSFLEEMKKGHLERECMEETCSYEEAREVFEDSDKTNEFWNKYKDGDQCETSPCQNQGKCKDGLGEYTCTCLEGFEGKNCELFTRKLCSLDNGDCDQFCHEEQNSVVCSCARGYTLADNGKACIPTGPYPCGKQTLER
UniProt P00742, 235-488 limits assumed: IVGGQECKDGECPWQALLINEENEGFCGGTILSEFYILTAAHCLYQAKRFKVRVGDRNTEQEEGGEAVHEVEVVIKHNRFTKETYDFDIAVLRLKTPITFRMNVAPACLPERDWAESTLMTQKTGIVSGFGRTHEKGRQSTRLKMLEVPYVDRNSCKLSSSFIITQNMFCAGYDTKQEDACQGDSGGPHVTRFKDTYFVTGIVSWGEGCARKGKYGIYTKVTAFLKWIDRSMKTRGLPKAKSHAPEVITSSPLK

Biological target: T1, Factor Xa (Homo sapiens, UniProt P00742)
T1 construct: Factor Xa was purchased from Enzyme research Labs (South Bend, Ind.); purchased Enzyme Research Labs (South Bend, Ind.)
Assay: functional probe library screen (microplate thermal shift assay) against Factor Xa
Assay type: binding
Settings: 1.4 μM Factor Xa

| SMILES | ΔTm (stabilization of Factor Xa) (0.1 M) | ΔTm (stabilization of Factor Xa) (0.5 M) |
| --- | --- | --- |
| [Ca+2].[Cl-].[Cl-] [CaCl2] | greater than 1.0 °C | – |
| [Cl-].[K+] [KCl] | – | greater than 1.0 °C |
| O=P(O)(O)OP(=O)(O)OP(=O)(O)O [tri-polyphosphate] | greater than 1.0 °C | – |
